Experimental findings from patent publication US6664036B1, “Homogeneous single-part color developer per color film processing and method of using same” (priority 2002, dated 2003) are described below.

Data set [1] in a line: Sensitometric effect of co-solvents, density deviation from standard C-41 process. The note with it: KODAK Advantix 200.
Test in data set [2]: as above
The note with it: KODAK MAX 400.

Test in data set [3]: as above
As to conditions: AGFA HDC PLUS 400.

The mark [4] stands for this setting: 9.0 g/l co-solvent, antioxidant 4.0 g/l AO-1, Process 3 minus Process 1.
Setting [5] is: 35 g/l co-solvent, antioxidant 2.0 g/l HAS, Process 2 minus Process 1.
Setting [6] is: 9.0 g/l co-solvent, antioxidant 7.1 g/l AO-1, Process 3 minus Process 1.

As to `Cc1ccc(C(=O)O)cc1` [CS-2, p-Toluic acid], the “Sum of Absolute Value of R,G,B Density Deviations (over 21 steps)” value came to 1.615 in data set [1] (setting [4]), 1.854 in data set [2] (setting [4]) and 1.351 in data set [3] (setting [4]).

With `OCCOCCO` [Comp-8, Diethylene glycol, reference compound], the “Sum of Absolute Value of R,G,B Density Deviations (over 21 steps)” value in data set [1] (setting [5]) is given as 2.374; in data set [2] (setting [5]), 2.285; in data set [3] (setting [5]) it was 3.689.

For `O=C([O-])c1ccccc1.[Na+]` [Sodium Benzoate], the “Sum of Absolute Value of R,G,B Density Deviations (over 21 steps)” value in data set [1] (setting [6]) was determined as 1.18; in data set [2] (setting [6]), 0.997; in data set [2] (9.0 g/l co-solvent, antioxidant 8.42 g/l AO-2, Process 3 minus Process 1) it was 1.45; in data set [3] (9.0 g/l co-solvent, antioxidant 7.0 g/l AO-1, Process 3 minus Process 1), 2.476.
